In patent US20190359687A1:
Substitutions are numbered along the chain they refer to. These are yes or no findings as the source states them, for the method shown. Some results given as binding are weak or reduced against the parent protein; the word gives no strength.

Amino acid sequences for entries named in this document (tags omitted). Residues count along the entry.
UniProt P02724, residues 20-150: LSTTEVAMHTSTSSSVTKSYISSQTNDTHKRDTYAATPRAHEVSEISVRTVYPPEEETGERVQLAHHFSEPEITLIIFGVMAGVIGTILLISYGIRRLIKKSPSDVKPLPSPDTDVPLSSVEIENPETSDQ

B1: TPP-7792 scFv (scFv)
scFv: DIQLTQSPSFLSASVGDRVTITCRASSSVRYIYWFQQKPGKAPKLLIYATSFRQSGVPSRFSGSGSGTEYTLTISSLQPEDFATYYCHQRNSFPYTFGQGTKLEIKEVQLVQSGAEVKKPGASVKVSCKASGYTFTTYAIHWVRQAPGQGLEWMGYINPSSGYTRYNPKFKGRVTMTRDKSTSTAYMELRSLRSDDTAVYYCWTGTRDYWGQGTTVTVSS
B2: TPP-7790 scFv (scFv)
scFv: B1 scFv with R53L, G172H
B3: TPP-7793 scFv (scFv)
scFv: B1 scFv with R30S, F52T, R53L, T137R, A139T
B4: TPP-7797 scFv (scFv)
scFv: B1 scFv with A139T, T206R
B5: TPP-7794 scFv (scFv)
scFv: B1 scFv with G172H
B6: TPP-7783 scFv (scFv)
scFv: B1 scFv with Q54R, G172H
B7: TPP-7782 scFv (scFv)
scFv: B1 scFv with A139T, W203Q
B8: TPP-7778 scFv (scFv)
scFv: B1 scFv with F52T, R53L, G172H, W203Q
B9: TPP-7795 scFv (scFv)
scFv: B1 scFv with R30S, R53L, A139T, S160K, Y163W, W203Q
B10: TPP-7781 scFv (scFv)
scFv: B1 scFv with F52T, R53L, A139T, S160K, Y163W, W203Q
B11: Hu6C12-22 (antibody, V domains shown)
VH: EVQLVQSGAEVKKPGASVKVSCKASGYTFTTYTIHWVRQAPGQGLEWMGYINPSSDYTRYNPKFKDRVTLTTDTSTSTAYMELRSLRSDDTAVYYCATGTRDYWGQGTTVTVSS
VL: DIQLTQSPSFLSASVGDRVTITCSAASSVSYIYWFQQKPGKAPKLLIYSTSTLPSGVPSRFSGSGSGTEYTLTISSLQPEDFATYYCHQRNSFPFTFGQGTKLEIK
B12: Hu6C12-23 (antibody, V domains shown)
VH: B11 VH with A97Q
VL: B11 VL
B13: Hu6C12-5 (antibody, V domains shown)
VH: B11 VH
VL: B11 VL with F35Y, Y70F
B14: Hu6C12-6 (antibody, V domains shown)
VH: B11 VH with A97Q
VL: B11 VL with F35Y, Y70F
B15: Hu6C12-15 (antibody, V domains shown)
VH: B11 VH with A97Q
VL: B11 VL with F35Y

Target: human glycophorin A in the red blood cell membrane (human) (UniProt P02724)
Assay: intact human RBC, scFv left in supernatant by ELISA

Binder	binding
B1	binds
B2	binds
B3	binds
B4	binds
B5	binds
B6	binds
B7	binds
B8	binds
B9	binds
B10	binds

Target: human glycophorin A in the red blood cell membrane (human) (UniProt P02724)
Assay: FACS, RBC of huGPA/HemA mice and human RBC

Binder	binding
B1	binds

Target: human glycophorin A in the red blood cell membrane (human) (UniProt P02724)
Assay: FACS on RBC of huGPA/HemA transgenic mice (muTGRBC), 1E+6 RBC/mL, scFv titrated

Binder	binding
B1	binds

Target: human glycophorin A in the red blood cell membrane (human) (UniProt P02724)
Assay: binding of scFv to intact human RBC (recap in Example 10)

Binder	binding
B1	binds
B2	binds
B3	binds

Target: human glycophorin A in the red blood cell membrane (human) (UniProt P02724)
Assay: FACS, IgG

Binder	binding
B11	binds
B12	binds
B13	binds
B14	binds
B15	binds

Target: human glycophorin A in the red blood cell membrane (human) (UniProt P02724)
Assay: Biacore, human RBC membranes

Binder	binding
B1	binds

Target: human glycophorin A in the red blood cell membrane (human) (UniProt P02724)
Assay: FACS on normal human RBC, 1E+6 RBC/mL, scFv titrated

Binder	binding
B1	binds
